Measurements: patent publication US12515963B2, “Nanoparticle composition and method of inhibiting ovarian cancer cell viability” (priority 2019, dated 2026)

Key:
[1] = tested on: E. faecalis A (vancomycin resistant Enterococcus type Van-A); test: Minimum inhibitory concentration (MIC); type: cell-based
Method: (§1) Minimum inhibitory concentration (MIC) was determined to assess the antibacterial potential of the compositions of Example 6 in microorganisms. MIC is the lowest concentration of a drug which prevents visible growth of bacterium. The tested panel of microorganisms represented a very broad spectrum of antibiotic resistant microorganisms. Sample 4-1 and Tetracycline (as control) were tested against multidrug-resistant Salmonella typhimurium DT 104. Sample 4-2 and Amoxicillin (as control) were tested against Bacillus subtilis. Sample 4-3 and Vancomycin (as control) were tested against vancomycin resistant Enterococcus type Van-A and also vancomycin resistant Leuconostoc mesenteroides VKPM B-4177. In all test conditions monometallic silver nanoparticle composition with Miramistin® alone (obtained using a process known in the art) were used as a control. This composition is referred to as “Ag-NPs-Myramistin in Table 8.

[2] = tested on: E. faecium A (vancomycin resistant Enterococcus type Van-A); test: Minimum inhibitory concentration (MIC); type: cell-based
Method: as §1

**Q.** Which MIC [1] does the source give for `CN[C@H](CC(C)C)C(=O)N[C@H]1C(=O)N[C@@H](CC(N)=O)C(=O)N[C@H]2C(=O)N[C@H]3C(=O)N[C@H](C(=O)N[C@H](C(=O)O)c4cc(O)cc(O)c4-c4cc3ccc4O)[C@H](O)c3ccc(c(Cl)c3)Oc3cc2cc(c3O[C@@H]2O[C@H](CO)[C@@H](O)[C@H](O)[C@H]2O[C@H]2C[C@](C)(N)[C@H](O)[C@H](C)O2)Oc2ccc(cc2Cl)[C@H]1O` [Vancomycin] here?
**A.** > 128 µg/mL

**Q.** And the MIC [2]?
**A.** > 128 µg/mL
